{
  "source": "paper PMC10418956",
  "binders": {"B1": {"name": "ATG12A (protein, UniProt Q8S924 1-96)", "chain": "MATESSSPSSVRKVVVHLRATGGAPILKQSKFKIPGTDKFAKVIDFLRRQLHSDSLFVYVNSAFSPNPDESVIDLYNNFGFDGKLVVNYACSMAWG"}, "B2": {"name": "SEC24C (protein, UniProt Q9M081 1-1080)", "chain": "MVAPVPPGAPRPNSQQNSGPPNFYPGSQGNSNALADNMQNLSLNRPPPMMPGSGPRPPPPFGQSPQPFPQQSPSYGAPQRGPSPMSRPGPPAGMARPGGPPPVSQPAGFQSNVPLNRPTGPPSRQPSFGSRPSMPGGPVAQPAASSSGFPAFGPSGSVAAGPPPGSRPMAFGSPPPVGSGMSMPPSGMIGGPVSNGHQMVGSGGFPRGTQFPGAAVTTPQAPYVRPPSAPYARTPPQPLGSHSLSGNPPLTPFTAPSMPPPATFPGAPHGRPAVSGLPYGPPSAQVAPPLGFPGQMQPPRYGMGPLPNQSMTNIPTAMGQPGATVPGPSRIDPNQIPRPGSSSSPTVFETRQSNQANPPPPATSDYVVRDTGNCSPRYMRCTINQIPCTVDLLSTSGMQLALMVQPLALSHPSEEPIQVVDFGEGGPVRCSRCKGYINPFMKFIDQGRKFICNFCGYTDETPRDYHCNLGPDGRRRDVDERPELCRGTVEFVATKEYMVRDPMPAVYFFLIDVSMNAIQTGATAAACNAIQQVLSDLPEGPRTFVGIATFDSTIHFYNLKRALQQPLMLIVPDVQDVYTPLETDVVVQLSECRQHLELLLDSIPTMFQESKIPESAFGAAVKAAFLAMKSKGGKLMVFQSILCSVGVGALSSREAEGRANMSAGEKEAHKLLQPADKTLKTMAIEFAEYQVCVDIFITTQAYVDMASISVIPRTTGGQVYCYYPFSALSDPPKLYNDLKWNITRPQGFEAVMRVRCSQGIQVQEYSGNFCKRIPTDIDLPAHDDKLQDGAECAFQCALLYTTIYGERRIRVTTLSLSCTNMLSNLFRAADLDSQFACMLKQAANEIPSKALPLVKEQATNSCINALYAYRKFCATVTSSGQLILPEALKLFPLYTLALTKSVGLRTDGRIDDRSFWINYVSSLSTPLAIPLVYPRMISVHDLDVKDTEGSVLPPPIPLSSEHISNEGVYFLENGEDGLLFVGESVDSDILQKLFAVSSAAEIPNQFVLQQYDNQLSKKFNDAVNEIRRQRCSYLRIKLCKKGEPSGMLFLSYMVEDRTASGPSYVEFLVQVHRQIQLKMN"}, "B3": {"name": "SNX1 (protein, UniProt Q9FG38 1-402)", "chain": "MESTEQPRNISGSMQSPRSPSSHPYLSVSVTDPVKLGNGVQAYISYRVITKTNLPEYQGPEKIVIRRYSDFVWLRDRLFEKYKGIFIPPLPEKSAVEKFRFSAEFIEMRRAALDIFVNRIALHPELQQSEDLRTFLQADEETMDRFRFQETSIFKKPADLMQMFRDVQSKVSDAVLGKEKPVEETTADYEKLKHYIFELENHLTEAQKHAYRLVKRHRELGQSLLDFGKAVKLLGACEGEPTGKAFSDLGTKSELLSIKLQKEAQQVLMNFEEPLKDYVRYVQSIKATIAERGTAFKQHCELSETTKLKEINLDKLMLTRSDKVGEAEIEYREIKAESEEATRRFERIVKRMEDEIVRFQEQKTEEMGVAFHQFAKGQARLANSVADAWRSLLPKLEASYSV"}, "B4": {"name": "ATG12B (protein, UniProt Q9LVK3 1-94)", "chain": "MATESPNSVQKIVVHLRATGGAPILKQSKFKVSGSDKFANVIDFLRRQLHSDSLFVYVNSAFSPNPDESVIDLYNNFGFDGKLVVNYACSMAWG"}, "B5": {"name": "SNX2a (protein, UniProt Q8L5Z7 1-587)", "chain": "MMGSENADGFEETNLNAQRDDMENLDLGVDGGDHPLKISDVNGDTSNSGYRSAMSTLSNVRDPLSPPPTVMIPADSDPLLAPSSYEDFRSSFSSKPISSDNSYIEPPSYADVIFSPFDENSDSEINGTEDNSLHSQFSDSLSRSPSSSSSDYIKITVSNPQKEQEISNSIVGGNTYITYQITTRTNLPDFGGPSEFSVRRRFRDVVTLADRLAETYRGFCIPPRPDKSVVESQVMQKQEFVEQRRVALEKYLRRLSAHPVIRNSDELKVFLQVQGKLPLPMSTDVASRMLDGAVKLPKQLFGEGGASAVPVTEVGQPARGGRDLLRLFKELRQSVSNDWGGSKPPVVEEDKEFLEKKEKMHDLEQQIINASQQAESLVKAQQDMGETMGELGLAFIKLTKFENEEAVCNPQRTRANDMKNLATAAVKASRFYRELNSQTVKHLDTLHEYLGMMMAVQGAFADRSSALLTVQTLLSELPSLQTRVEKLEAASSKVFGGDKSRIRKIEELKETIKVTEDAKNVAIKGYERIKENNRSEVERLDRERRADFMNMMKGFVVNQVGYAEKMGNVWAKVAEETSQYDREKQSS"}, "B6": {"name": "20S proteasome subunit alpha E2 (protein, UniProt Q42134 1-237)", "chain": "MFLTRTEYDRGVNTFSPEGRLFQVEYAIEAIKLGSTAIGVKTKEGVVLAVEKRITSPLLEPSSVEKIMEIDDHIGCAMSGLIADARTLVEHARVETQNHRFSYGEPMTVESTTQALCDLALRFGEGEEESMSRPFGVSLLIAGHDENGPSLYYTDPSGTFWQCNAKAIGSGSEGADSSLQEQFNKDITLQEAETIAVSILKQVMEEKVTPNNVDIAKVAPAYHLYTPQEVEAVISRL"}, "B7": {"name": "ATG16 (protein, UniProt Q6NNP0 1-509)", "chain": "MVQEEKAMEAINDALRALRKRHLLEEGAHAPAISALSKPLISQGSEWKEKTEKLETELQQCYKAQSRLSEQLVIEVAESRTSKAILQEKELLINDLQKELTQRREDCTRLQEELEEKTKTVDVLIAENLEIRSQLEEMTSRVQKAETENKMLIDRWMLQKMQDAERLNEANDLYEEMLAKLKANGLETLARQQVDGIVRRNEDGTDHFVESTIPSTCANRIHAHEGGCGSIVFEYNSGTLFTGGQDRAVKMWDTNSGTLIKSLYGSLGNILDMAVTHDNKSVIAATSSNNLFVWDVSSGRVRHTLTGHTDKVCAVDVSKFSSRHVVSAAYDRTIKLWDLHKGYCTNTVLFTSNCNAICLSIDGLTVFSGHMDGNLRLWDIQTGKLLSEVAGHSSAVTSVSLSRNGNRILTSGRDNVHNVFDTRTLEICGTLRASGNRLASNWSRSCISPDDDYVAAGSADGSVHVWSLSKGNIVSILKEQTSPILCCSWSGIGKPLASADKNGYVCTWT"}, "B8": {"name": "Nucleoporin 155 (protein, UniProt F4HXV6 1-1464)", "chain": "MSQDDEIVMRDVTSAGICIGDRIGREAASQLDLEEALEASRYASHPYSTHPREWPPLIEVGETWELPSVLIERYNTAGGEGTALCGIFPEIRRAWASVDNSLFLWRFDKRDGQCPEYSGEEQAICAVGLAKCRPGVFVEAIQYLLVLATPVELVLVGVCCTEGPDGRDPYAEISVQPLPDYTISSDGVTMTCVTCTNKGRIFMAGRDGHIYELLYTTGSGWNKRCRKVCLTAGVGSMISRWVVPNVFKFGAVDPVVEMVVDNERQILYARTEEMKLQAYVSGPNGEGPLKKVAEERNLLNQKDLSQGNRQSAVAGRSNKPSIVSISPLSMLESKWLHLVAALSDGRRMYLSTSSSGSGSTISFSGFNNHRQTPNCLKVVSTRPSPPLGVGVGLGFGAASVAGRTQNDDLSMKIETAYYSVGTLVLSDSSPPAMSSLLVVSRDSSVHSQAGSSSGPSSRSSRALREVVSSLPIEGRMLFVADVLPSPDTAATIQSLYSELEYCGVEVSGESYEKACGKLWARSDLSTQHILPRRKIVVFTTMGMMELVFNRPVDILRRLLESNSPRSLLEDFFTRFGVGEAAAMCLMLAARIINFEDLISNIVADKAAEAFEDPRIVGMPQFDGSSGLSNTRTATGGFSMGQVVQEAEPIFSGAHEGLCLCTSRLLFPLWELPVMSKKTSSDTMSEDGVVICRLSTSAMHVLESKIRSLEKFLRSRRNQRRGLYGCVAGLGDVTGSILYGTGSELGATERNMVRNLFGAYSNGGESANKRQRLPYSPAELAATEVRAMECIRQLLLRSAEALFLLQLLSQHHVARLVQELDANLKQALVQLTFHQLVCSEEGDQIATRLISAVMEYYTGSDGRGTVDDISPRLREGCPSYFKESDYKFYLAVERLERAALTSDAEEKENVAREAFSFLSKVPGSADLQTVCKRFEDLRFYEAVVCLPLQKAQALDPAGDAFNDQLDASIREHALAQRKQCYEIIANALRSLASPLASPTLDEASRSQYICQIVHLGVQSTDRAFREYLYKAMIELHLENELLEYGGPDLVPFLQNAGSHSESQVGAVSTGSSPLGHSGTQISSDQAKYFDLLAKYYVSKRQHVLAAHVFLRLAERRAISLGDSPTLERRRDDLSQAVLQAKNASNSDGLVGSAQGVSDSGLLDLLEGKLAVLQFQIKIRDKLEAIASNFESSVAMQDSDQNGQVLDGDSSDDTNLANAANEMAMEVSSELKSVTQLYNEYAVPFELWEICLEMLYFANYSGDADSSIIRETWARLIDQALSQGGIREACAVLKRVGSHIYPGDGVVLPLDVLCLHLERAALERSERIENVRDEDIAKALLAACKGAAEPVLNAYDRLLSNAAVVPSPNLRIRLLRSVLVVLREWAMSVLSDRMGSSPTRSSLILGGSFALENKAALNQGARDKIANAANRYMTEVRRLALPPNKTDGVYAGFKELDESLLSPFSF"}, "B9": {"name": "SEC13B (protein, UniProt O64740 1-302)", "chain": "MPGQKIETGHEDIVHDVQMDYYGKRIATASSDCTIKITGVSNNGGSQQLATLTGHRGPVWEVAWAHPKYGSILASCSYDGQVILWKEGNQNQWTQDHVFTDHKSSVNSIAWAPHDIGLSLACGSSDGNISVFTARADGGWDTSRIDQAHPVGVTSVSWAPATAPGALVSSGLLDPVYKLASGGCDNTVKVWKLANGSWKMDCFPALQKHTDWVRDVAWAPNLGLPKSTIASGSQDGKVIIWTVGKEGEQWEGKVLKDFMTPVWRVSWSLTGNLLAVSDGNNNVTVWKEAVDGEWEQVTAVEP"}},
  "note": "Where a chain is given by its changes, count along the chain named. No constants are given. Whether binding was seen depends on the method and setting. Binding seen in cells or lysates may run through a third protein. These calls come from enrichment with a bait or labelling near it, and not all partners need be listed. No binding means not detected with the bait.",
  "data": [
    {"molecular_target": "T1, ATG5-TAP (Arabidopsis thaliana) (UniProt Q9FFI2)", "T1 sequence": "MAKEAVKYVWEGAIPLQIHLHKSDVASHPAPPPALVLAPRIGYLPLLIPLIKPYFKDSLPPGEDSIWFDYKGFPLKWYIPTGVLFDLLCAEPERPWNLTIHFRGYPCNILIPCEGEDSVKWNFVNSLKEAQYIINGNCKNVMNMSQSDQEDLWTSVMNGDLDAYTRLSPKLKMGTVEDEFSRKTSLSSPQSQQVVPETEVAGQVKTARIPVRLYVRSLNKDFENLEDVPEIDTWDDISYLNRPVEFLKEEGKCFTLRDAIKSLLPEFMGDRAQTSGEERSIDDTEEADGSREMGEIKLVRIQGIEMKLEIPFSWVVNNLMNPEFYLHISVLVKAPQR", "test": "affinity purification with mass spectrometry; tandem affinity purification (IgG Sepharose, PreScission protease, Ni Sepharose) of TAP-tagged bait expressed under the 2x35S promoter in Col-0, from protein extracts of fully expanded rosette leaves at the bolting stage, long day conditions; LC-MS/MS; hits enriched over the GFP-TAP control (fold change >= 1.5, p <= 0.05)", "values": [
      {"binder": "B1", "binding": "binds"},
      {"binder": "B2", "binding": "binds"},
      {"binder": "B3", "binding": "binds"},
      {"binder": "B4", "binding": "binds"},
      {"binder": "B5", "binding": "no binding"},
      {"binder": "B6", "binding": "binds"},
      {"binder": "B7", "binding": "binds"}
    ]},
    {"molecular_target": "T2, ATG5^K128R-TAP (Arabidopsis thaliana) (UniProt Q9FFI2)", "T2 sequence": "T1 sequence with K128R", "test": "affinity purification with mass spectrometry; tandem affinity purification (IgG Sepharose, PreScission protease, Ni Sepharose) of TAP-tagged bait expressed under the 2x35S promoter in Col-0, from protein extracts of fully expanded rosette leaves at the bolting stage, long day conditions; LC-MS/MS; hits enriched over the GFP-TAP control (fold change >= 1.5, p <= 0.05)", "values": [
      {"binder": "B1", "binding": "no binding"},
      {"binder": "B3", "binding": "no binding"},
      {"binder": "B4", "binding": "no binding"},
      {"binder": "B5", "binding": "binds"},
      {"binder": "B8", "binding": "binds"},
      {"binder": "B9", "binding": "binds"},
      {"binder": "B7", "binding": "binds"}
    ]}
  ]
}
